# Measured values from publication PMC3349750.
# Chains of the proteins cited; added tags and fusions are not shown.
# UniProt Q59U10: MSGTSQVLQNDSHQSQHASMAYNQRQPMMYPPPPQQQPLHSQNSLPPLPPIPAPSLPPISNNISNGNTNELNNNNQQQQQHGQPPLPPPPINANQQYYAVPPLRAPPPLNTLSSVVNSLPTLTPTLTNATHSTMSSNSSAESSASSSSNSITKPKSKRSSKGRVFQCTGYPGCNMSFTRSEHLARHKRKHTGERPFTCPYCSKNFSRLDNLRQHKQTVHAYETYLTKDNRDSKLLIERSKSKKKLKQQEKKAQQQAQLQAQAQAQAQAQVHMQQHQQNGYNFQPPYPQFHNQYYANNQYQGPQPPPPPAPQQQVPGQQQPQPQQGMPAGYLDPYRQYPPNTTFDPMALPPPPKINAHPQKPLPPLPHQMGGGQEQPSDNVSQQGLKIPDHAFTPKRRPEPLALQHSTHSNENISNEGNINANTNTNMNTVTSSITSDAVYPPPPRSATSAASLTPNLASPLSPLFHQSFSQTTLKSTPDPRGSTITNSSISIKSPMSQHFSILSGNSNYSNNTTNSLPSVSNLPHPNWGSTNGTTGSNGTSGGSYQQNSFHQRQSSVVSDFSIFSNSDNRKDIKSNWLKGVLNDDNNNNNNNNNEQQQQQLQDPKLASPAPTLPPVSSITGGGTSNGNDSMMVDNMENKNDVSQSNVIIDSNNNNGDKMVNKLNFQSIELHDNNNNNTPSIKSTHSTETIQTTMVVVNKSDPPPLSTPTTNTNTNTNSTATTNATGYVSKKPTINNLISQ
# UniProt Q5AP53: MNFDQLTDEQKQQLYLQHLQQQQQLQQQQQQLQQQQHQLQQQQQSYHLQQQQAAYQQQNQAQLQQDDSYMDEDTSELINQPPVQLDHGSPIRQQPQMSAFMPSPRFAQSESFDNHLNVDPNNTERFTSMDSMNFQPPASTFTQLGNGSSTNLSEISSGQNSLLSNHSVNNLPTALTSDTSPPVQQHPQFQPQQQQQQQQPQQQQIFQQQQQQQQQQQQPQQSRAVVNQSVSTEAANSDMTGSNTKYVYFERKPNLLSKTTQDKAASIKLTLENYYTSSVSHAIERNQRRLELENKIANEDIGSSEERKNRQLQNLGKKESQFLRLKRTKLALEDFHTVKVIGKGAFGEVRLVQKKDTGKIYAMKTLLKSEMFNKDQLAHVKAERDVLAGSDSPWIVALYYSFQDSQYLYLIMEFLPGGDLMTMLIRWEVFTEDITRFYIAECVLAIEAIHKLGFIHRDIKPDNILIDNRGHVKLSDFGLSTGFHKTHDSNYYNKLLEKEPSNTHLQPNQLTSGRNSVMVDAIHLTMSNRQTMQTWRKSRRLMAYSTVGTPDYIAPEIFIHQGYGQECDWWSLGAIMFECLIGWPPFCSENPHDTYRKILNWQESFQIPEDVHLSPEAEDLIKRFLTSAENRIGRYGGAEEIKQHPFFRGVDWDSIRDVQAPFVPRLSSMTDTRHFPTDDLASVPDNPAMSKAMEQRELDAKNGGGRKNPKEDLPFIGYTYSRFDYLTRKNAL
# Results are given in words; binding and its absence hold for the method and conditions named. In cells and extracts the contact can be indirect. Some binding calls cover weakened binding; strength is not graded here.
# Target: Transcription factor Bcr1, HA-tagged (Bcr1-HA) (C. albicans) (UniProt Q59U10)
# Assay: co-IP; protein extracts of the C. albicans CBK1-myc BCR1-HA strain (JC1151) immunoprecipitated with anti-HA antibodies; SDS-PAGE, probed with anti-myc or anti-HA; the CBK1-myc strain (JC305) was the negative control; the protocol is as in ref. 17
substance,measurement,value
"NDR/LATS kinase Cbk1, myc-tagged (Cbk1-myc) (from UniProt Q5AP53 1-732) (enzyme)",binding,binds
